# Measurements published in patent US12600759 (dated 2026).
# Assay: general procedure: Fmoc solid-phase peptide synthesis; 2-CTC resin; DIC/HOBt
# Settings: whole synthesis
substance,measurement,setting,value
H-His-Ala-Glu-Gly-Thr-Phe-Thr-Ser-Asp-Val-Ser-Ser-Tyr-Leu-Glu-Gly-Gln-Ala-Ala-Lys (γ-Glu-palmitoyl)-Glu-Phe-Ile-Ala-Trp-Leu-Val-Arg-Gly-Arg-Gly-OH (SEQ ID NO: 1),final HPLC purity,HPLC / UPLC,not less than 99.0%
same,isolated yield,isolated yield,9-12%
